The other results are listed elsewhere or left out. Most entries show no effect beyond the scatter of the controls.
These targets were tested with Cc1nc(Nc2ncc(C(=O)Nc3c(C)cccc3Cl)s2)cc(N2CCN(CCO)CC2)n1 [dasatinib] (assay: log2 fold change of tryptic peptide abundance, ligand vs vehicle (limited proteolysis) (log2 ratio); higher = more trypsin-susceptible (destabilized)). Conditions: ligand concentration: 5 uM; sample: K562 cleared lysate.

The chains behind the UniProt entries cited, without tags or fusion partners. Where a name states a change or a piece, a line headed by the entry shows the natural chain unless it says otherwise.
UniProt P20340: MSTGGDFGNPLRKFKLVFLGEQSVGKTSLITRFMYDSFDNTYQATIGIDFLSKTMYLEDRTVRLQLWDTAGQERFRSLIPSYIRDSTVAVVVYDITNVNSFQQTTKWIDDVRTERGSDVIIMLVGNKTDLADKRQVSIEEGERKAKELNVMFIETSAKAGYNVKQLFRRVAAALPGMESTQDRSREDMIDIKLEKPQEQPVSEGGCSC
UniProt P23327: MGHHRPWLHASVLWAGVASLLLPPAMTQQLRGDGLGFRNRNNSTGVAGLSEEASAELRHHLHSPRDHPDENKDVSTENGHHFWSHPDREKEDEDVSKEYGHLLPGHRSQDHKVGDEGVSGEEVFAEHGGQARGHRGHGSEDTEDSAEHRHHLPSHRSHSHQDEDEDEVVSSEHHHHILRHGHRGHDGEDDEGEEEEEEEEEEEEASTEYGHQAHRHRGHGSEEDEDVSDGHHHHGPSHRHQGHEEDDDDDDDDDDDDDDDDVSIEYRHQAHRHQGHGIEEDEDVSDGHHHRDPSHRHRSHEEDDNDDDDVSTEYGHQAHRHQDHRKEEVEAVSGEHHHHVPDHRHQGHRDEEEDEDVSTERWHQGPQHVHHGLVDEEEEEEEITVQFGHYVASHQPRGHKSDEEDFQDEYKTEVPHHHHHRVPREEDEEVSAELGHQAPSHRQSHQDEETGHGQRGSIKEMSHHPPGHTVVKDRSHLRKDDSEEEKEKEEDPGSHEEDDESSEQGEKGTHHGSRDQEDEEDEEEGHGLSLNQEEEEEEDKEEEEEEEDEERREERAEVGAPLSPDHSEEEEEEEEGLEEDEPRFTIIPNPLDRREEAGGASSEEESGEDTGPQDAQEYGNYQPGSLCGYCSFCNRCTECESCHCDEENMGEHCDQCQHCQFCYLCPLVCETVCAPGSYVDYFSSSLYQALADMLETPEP
UniProt P27987: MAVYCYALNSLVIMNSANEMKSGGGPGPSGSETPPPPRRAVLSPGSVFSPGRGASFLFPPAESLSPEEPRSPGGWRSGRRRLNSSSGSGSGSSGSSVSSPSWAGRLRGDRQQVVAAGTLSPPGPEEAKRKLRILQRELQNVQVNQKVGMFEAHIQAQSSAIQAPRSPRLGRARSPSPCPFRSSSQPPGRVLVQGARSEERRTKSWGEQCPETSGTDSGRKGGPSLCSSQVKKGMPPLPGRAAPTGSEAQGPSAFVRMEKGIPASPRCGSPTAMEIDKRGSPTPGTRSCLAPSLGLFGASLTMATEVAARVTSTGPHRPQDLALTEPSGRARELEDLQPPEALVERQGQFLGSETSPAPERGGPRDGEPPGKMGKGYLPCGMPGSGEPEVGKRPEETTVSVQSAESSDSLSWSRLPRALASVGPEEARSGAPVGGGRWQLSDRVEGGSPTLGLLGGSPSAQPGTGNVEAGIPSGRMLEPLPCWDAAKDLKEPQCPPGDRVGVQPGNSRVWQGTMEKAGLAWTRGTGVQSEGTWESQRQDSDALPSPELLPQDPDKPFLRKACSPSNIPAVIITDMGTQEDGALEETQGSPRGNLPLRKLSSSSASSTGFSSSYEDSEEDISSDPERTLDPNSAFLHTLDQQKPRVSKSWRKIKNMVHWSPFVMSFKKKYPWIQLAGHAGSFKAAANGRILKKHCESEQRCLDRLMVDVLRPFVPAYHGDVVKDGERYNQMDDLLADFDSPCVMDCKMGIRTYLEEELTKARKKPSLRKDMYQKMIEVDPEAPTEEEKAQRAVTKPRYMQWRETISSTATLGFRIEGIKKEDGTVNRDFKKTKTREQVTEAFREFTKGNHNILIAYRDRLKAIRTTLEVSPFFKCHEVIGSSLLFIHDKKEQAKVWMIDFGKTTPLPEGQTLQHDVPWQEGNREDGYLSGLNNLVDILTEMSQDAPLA
UniProt P16152: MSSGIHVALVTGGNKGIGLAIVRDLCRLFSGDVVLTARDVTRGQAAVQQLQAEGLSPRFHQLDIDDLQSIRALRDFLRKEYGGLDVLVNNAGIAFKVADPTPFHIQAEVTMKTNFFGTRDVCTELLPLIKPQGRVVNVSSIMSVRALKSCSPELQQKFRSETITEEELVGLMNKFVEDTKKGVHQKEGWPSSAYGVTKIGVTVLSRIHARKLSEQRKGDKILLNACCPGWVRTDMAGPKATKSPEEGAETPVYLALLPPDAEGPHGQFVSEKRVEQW
UniProt P23368: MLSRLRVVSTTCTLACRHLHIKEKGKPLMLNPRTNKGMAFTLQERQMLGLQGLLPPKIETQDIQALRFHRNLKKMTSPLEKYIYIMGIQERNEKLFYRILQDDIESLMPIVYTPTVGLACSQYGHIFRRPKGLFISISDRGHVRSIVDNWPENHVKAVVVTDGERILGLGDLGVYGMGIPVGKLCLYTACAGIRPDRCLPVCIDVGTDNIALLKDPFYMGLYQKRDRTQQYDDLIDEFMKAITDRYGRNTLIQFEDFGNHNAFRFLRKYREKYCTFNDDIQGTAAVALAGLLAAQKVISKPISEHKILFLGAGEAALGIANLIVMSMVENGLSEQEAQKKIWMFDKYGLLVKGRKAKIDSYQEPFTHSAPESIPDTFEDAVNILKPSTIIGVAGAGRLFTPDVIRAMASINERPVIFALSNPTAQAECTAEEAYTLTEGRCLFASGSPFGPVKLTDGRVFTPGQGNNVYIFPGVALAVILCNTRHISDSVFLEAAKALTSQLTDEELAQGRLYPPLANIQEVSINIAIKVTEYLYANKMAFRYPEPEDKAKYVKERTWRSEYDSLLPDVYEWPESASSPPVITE
UniProt P17026: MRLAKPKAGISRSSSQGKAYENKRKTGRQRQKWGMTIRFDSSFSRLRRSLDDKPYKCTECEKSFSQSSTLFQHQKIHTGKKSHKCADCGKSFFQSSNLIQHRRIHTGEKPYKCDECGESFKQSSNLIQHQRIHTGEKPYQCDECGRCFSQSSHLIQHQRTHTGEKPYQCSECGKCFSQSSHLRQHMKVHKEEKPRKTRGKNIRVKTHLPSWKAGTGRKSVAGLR
UniProt P23497: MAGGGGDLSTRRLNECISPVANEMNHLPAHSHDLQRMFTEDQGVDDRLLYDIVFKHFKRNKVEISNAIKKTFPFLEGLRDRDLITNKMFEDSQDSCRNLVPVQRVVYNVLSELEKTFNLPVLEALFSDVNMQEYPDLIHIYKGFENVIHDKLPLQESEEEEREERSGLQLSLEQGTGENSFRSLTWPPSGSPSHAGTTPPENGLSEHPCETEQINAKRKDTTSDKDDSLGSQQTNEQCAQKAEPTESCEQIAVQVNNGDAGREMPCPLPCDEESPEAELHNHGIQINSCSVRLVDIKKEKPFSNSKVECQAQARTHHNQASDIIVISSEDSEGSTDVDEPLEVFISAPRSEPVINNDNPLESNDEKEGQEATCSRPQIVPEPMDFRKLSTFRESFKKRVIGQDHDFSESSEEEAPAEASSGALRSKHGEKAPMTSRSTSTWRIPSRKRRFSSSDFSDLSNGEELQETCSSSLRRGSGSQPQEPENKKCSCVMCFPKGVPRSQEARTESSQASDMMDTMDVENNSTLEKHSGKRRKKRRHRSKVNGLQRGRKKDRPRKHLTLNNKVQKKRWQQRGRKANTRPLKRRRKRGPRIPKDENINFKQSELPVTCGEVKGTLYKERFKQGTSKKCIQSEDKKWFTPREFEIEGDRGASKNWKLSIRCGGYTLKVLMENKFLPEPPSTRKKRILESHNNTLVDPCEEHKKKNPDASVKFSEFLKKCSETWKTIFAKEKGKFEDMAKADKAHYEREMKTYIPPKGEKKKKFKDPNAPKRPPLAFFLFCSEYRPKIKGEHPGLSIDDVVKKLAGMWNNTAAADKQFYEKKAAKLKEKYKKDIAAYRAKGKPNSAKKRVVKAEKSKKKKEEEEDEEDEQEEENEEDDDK
UniProt P23528, whole entry: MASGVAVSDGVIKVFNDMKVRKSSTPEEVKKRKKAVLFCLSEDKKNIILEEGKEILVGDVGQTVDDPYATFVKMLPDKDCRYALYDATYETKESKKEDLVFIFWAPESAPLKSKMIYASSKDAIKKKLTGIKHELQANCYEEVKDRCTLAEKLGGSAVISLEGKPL
UniProt P15374: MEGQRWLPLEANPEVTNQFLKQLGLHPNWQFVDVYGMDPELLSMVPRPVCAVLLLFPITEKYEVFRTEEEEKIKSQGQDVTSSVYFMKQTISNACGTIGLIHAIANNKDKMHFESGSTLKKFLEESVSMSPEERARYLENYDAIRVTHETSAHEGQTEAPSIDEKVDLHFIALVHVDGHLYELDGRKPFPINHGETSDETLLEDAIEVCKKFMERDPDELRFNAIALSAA
UniProt P17096: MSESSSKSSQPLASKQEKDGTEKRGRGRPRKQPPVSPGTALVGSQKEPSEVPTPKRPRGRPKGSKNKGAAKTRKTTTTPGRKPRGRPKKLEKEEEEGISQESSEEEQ
UniProt P24468: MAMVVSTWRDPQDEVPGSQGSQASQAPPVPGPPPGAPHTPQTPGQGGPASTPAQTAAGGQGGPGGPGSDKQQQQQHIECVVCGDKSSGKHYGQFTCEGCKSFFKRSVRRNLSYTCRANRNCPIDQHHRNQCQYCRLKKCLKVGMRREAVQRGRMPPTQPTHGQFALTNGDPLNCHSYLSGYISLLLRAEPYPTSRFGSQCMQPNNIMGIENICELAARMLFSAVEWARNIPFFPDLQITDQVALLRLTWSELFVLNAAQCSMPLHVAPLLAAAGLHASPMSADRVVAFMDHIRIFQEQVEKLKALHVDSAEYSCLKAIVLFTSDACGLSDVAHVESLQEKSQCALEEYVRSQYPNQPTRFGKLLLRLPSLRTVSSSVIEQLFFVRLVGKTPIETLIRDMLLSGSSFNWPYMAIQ
UniProt P25791: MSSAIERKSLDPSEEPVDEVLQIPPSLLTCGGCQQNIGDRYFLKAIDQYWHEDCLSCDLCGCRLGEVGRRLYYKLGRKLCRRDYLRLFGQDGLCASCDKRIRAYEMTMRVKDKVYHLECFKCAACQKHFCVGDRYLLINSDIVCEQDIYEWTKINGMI
UniProt P17980, whole entry: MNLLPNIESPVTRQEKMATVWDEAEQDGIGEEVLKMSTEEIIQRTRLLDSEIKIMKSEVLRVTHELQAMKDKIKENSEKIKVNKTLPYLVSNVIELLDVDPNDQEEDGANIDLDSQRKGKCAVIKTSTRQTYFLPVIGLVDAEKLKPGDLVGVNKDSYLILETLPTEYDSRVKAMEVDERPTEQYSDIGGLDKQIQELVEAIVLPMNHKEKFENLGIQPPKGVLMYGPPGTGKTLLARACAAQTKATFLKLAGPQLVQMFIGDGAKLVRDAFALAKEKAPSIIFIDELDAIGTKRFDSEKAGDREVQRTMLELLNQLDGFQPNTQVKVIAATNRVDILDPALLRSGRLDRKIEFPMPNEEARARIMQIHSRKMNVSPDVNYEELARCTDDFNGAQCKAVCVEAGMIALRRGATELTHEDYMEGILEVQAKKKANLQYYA
UniProt P20700: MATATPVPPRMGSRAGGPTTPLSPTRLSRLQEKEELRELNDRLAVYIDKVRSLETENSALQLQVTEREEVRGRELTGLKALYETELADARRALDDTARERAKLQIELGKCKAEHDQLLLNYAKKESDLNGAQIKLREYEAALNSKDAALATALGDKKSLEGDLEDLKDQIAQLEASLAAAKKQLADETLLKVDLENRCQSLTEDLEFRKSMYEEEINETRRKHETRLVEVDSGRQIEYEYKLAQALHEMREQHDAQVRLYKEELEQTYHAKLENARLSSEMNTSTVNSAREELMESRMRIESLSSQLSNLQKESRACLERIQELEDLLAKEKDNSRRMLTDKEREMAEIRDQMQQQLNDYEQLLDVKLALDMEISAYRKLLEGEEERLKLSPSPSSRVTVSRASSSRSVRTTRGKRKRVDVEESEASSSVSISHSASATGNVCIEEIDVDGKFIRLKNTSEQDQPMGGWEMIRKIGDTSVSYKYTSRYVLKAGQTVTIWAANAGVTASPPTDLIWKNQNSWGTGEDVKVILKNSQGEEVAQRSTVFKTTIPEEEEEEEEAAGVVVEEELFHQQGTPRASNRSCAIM
UniProt P22532: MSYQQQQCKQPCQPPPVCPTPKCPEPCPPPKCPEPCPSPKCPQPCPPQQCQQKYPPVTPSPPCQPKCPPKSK
UniProt P22087: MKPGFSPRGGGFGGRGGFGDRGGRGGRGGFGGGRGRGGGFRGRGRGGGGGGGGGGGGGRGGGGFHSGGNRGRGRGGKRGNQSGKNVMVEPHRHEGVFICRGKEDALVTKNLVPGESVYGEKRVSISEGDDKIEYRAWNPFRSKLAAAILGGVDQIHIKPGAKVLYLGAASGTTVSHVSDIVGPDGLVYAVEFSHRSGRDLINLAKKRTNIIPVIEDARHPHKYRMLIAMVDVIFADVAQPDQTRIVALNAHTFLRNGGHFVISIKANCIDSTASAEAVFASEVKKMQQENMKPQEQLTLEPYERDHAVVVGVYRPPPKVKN
UniProt P21912: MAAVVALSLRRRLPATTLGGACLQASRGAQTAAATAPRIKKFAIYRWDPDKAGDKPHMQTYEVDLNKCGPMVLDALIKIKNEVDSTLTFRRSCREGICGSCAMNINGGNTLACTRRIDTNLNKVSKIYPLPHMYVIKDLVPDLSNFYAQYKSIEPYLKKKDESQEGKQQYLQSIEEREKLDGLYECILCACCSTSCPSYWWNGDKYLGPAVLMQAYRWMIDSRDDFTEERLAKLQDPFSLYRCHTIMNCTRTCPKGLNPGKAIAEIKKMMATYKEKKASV

Target | log2 fold change
UniProt P17812 (peptide sequence: YHEAWQK, peptide start residue: 354) | 0.125
UniProt P17600 (peptide sequence: QASQAGPVPR, peptide start residue: 603) | 0.0522
GOT1 (peptide sequence: TDDCHPWVLPVVK, peptide start residue: 43) (UniProt P17174) | -0.309
RAB6A (peptide sequence: STGGDFGNPLRK, peptide start residue: 2) (UniProt P20340) | 0.316
PSMA1 (peptide sequence: LLCNFMR, peptide start residue: 83) (UniProt P25786) | -0.0464
HRC (peptide sequence: EMSHHPPGHTVVK, peptide start residue: 460) (UniProt P23327) | -0.473
ITPKB (peptide sequence: TYLEEELTK, peptide start residue: 269) (UniProt P27987) | -0.0683
GLUL (peptide sequence: YIEEAIEKLSKR, peptide start residue: 269) (UniProt P15104) | 0.271
CBR1 (peptide sequence: FVEDTKK, peptide start residue: 175) (UniProt P16152) | 0.187
ME2 (peptide sequence: LCLYTACAGIRPDR, peptide start residue: 184) (UniProt P23368) | -0.646
UniProt P25705 (peptide sequence: VVDALGNAIDGK, peptide start residue: 150) | 0.111
ZNF22 (peptide sequence: SFFQSSNLIQHR, peptide start residue: 91) (UniProt P17026) | 0.0815
SP100 (peptide sequence: VECQAQAR, peptide start residue: 307) (UniProt P23497) | 0.161
SON (peptide sequence: QPEESESK, peptide start residue: 132) (UniProt P18583) | 0.342
U2AF2 (peptide sequence: VVVTKYCDPDSYHRR, peptide start residue: 458) (UniProt P26368) | 0.638
CAPN2 (peptide sequence: KALEEAGFKMPCQLHQVIVAR, peptide start residue: 629) (UniProt P17655) | -0.523
CFL1 (peptide sequence: AVLFCLSEDK, peptide start residue: 35) (UniProt P23528) | 0.102
CALR (peptide sequence: FYGDEEKDK, peptide start residue: 56) (UniProt P27797) | 0.262
ATP6V1C1 (peptide sequence: DFQYNEEEMKADKEEMNR, peptide start residue: 250) (UniProt P21283) | 0.13

Target | log2 fold change
PHKG2 (peptide sequence: NALLRDPYALR, peptide start residue: 334) (UniProt P15735) | -0.135
GM2A (peptide sequence: IESVLSSSGK, peptide start residue: 170) (UniProt P17900) | -0.249
UCHL3 (peptide sequence: QTISNACGTIGLIHAIANNKDK, peptide start residue: 89) (UniProt P15374) | 0.303
DNAJB1 (peptide sequence: KKQDPPVTHDLR, peptide start residue: 158) (UniProt P25685) | -0.145
HMGA1 (peptide sequence: EPSEVPTPK, peptide start residue: 47) (UniProt P17096) | 0.196
UniProt P16415 (peptide sequence: SCEHQEYGEKPYTHK, peptide start residue: 125) | 0.24
UniProt P24468 (peptide sequence: SQYPNQPTR, peptide start residue: 351) | -0.111
DDX5 (peptide sequence: GGMKDDRR, peptide start residue: 487) (UniProt P17844) | -0.434
LMO2 (peptide sequence: AYEMTMR, peptide start residue: 103) (UniProt P25791) | 0.0758
PSMC3 (peptide sequence: LKPGDLVGVNK, peptide start residue: 145) (UniProt P17980) | -0.263
S100A4 (peptide sequence: ALDVMVSTFHK, peptide start residue: 8) (UniProt P26447) | -0.403
UniProt P19525 (peptide sequence: DGIISDIFDKKEK, peptide start residue: 500) | -0.328
LMNB1 (peptide sequence: EQHDAQVR, peptide start residue: 251) (UniProt P20700) | -0.166
UniProt P22532 (peptide sequence: YPPVTPSPPCQPKCPPKSK, peptide start residue: 54) | -0.34
FBL (peptide sequence: HEGVFICR, peptide start residue: 93) (UniProt P22087) | 0.195
CHM (peptide sequence: RFNIDLVSK, peptide start residue: 228) (UniProt P24386) | -0.347
UniProt P23443 (peptide sequence: HINWEELLAR, peptide start residue: 354) | -0.207
SDHB (peptide sequence: MMATYKEK, peptide start residue: 269) (UniProt P21912) | -0.542

Single entries from the results shown.
Under log2 fold change, UniProt P17600 (peptide sequence: QASQAGPVPR, peptide start residue: 603) reads 0.0522
Under log2 fold change, UniProt P23443 (peptide sequence: HINWEELLAR, peptide start residue: 354) reads -0.207

— the supplement of paper PMC12819154, “High-throughput peptide-centric local stability assay extends protein–ligand identification to membrane proteins, tissues and bacteria” (Nature Structural & Molecular Biology, 2025)
